Data source: PubChem BioAssay AID1159584 (Peter MacCallum Cancer Centre, 2016)
Purpose: 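Genes that CDH1-null MCF10A cells selectively depend on to survive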 (primary screen). System: human MCF10A breast epithelial cells, parental and CDH1-null. Reagents: siRNA against human genes. Measured: 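ATP luminescence (CellTiter-Glo) viability per line relative to mean mock wells over all plates, and the ratio of CDH1-null to parental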. Reading the numbers: CDH1-null / parental viability ratio: higher = CDH1-null cells survive relatively better than parental; CDH1-null viability vs mock: higher = more viable CDH1-null cells; parental viability vs mock: higher = more viable parental cells.
This is one part, drawn at random, of about 18,000 deposited reagents. Reagent sequences are not shown. Not given: the amount of reagent, the time to read-out.

The opening 3 records, to show the layout:
Gene	CDH1-null / parental viability ratio	CDH1-null viability vs mock (fraction of mock)	parental viability vs mock (fraction of mock)
SCARA3	0.77	0.62	0.8
DNAJA2	0.85	0.74	0.87
ASPHD1	1.13	0.79	0.7

The list itself, from the first entry:
Gene	CDH1-null / parental viability ratio	CDH1-null viability vs mock (fraction of mock)	parental viability vs mock (fraction of mock)
SCARA3	0.77	0.62	0.8
DNAJA2	0.85	0.74	0.87
ASPHD1	1.13	0.79	0.7
UBA1	1.15	0.78	0.68
FMNL2	0.94	1.02	1.09
DNAH9	1.13	0.53	0.47
CPNE7	1	0.8	0.8
ZNF710	1.23	0.65	0.53
RFX1	0.94	0.66	0.7
FBXW2	0.95	0.8	0.84
ATXN7	0.99	0.82	0.83
ACAP3	0.94	0.8	0.85
CYBA	0.82	0.71	0.87
SYNGR2	1.06	0.54	0.51
VASP	1.1	1.02	0.93
FGF4	0.71	0.6	0.84
KIR3DP1	0.85	0.51	0.6
PYM1	0.99	0.73	0.74
BEND2	1.17	1.03	0.88
DHX40	0.85	0.64	0.75
FGA	0.86	0.67	0.78
MME	1.03	0.97	0.94
RAB40A	1	0.68	0.68
PRMT1	0.94	0.92	0.98
LRTOMT	0.85	0.58	0.68
GOT2	1.09	1	0.92
ZNF423	1.14	0.99	0.87
HMGN3	1.18	1.07	0.91
